{
  "source": "the supplement of paper PMC10973195",
  "note": "± gives the standard deviation of the averaged measurements. The list shows a part of the results. Values are raw readings; no control value is given beside them.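 A neuron, microglia and astrocyte co-culture models inflammatory neurodegeneration: bacterial LPS drives microglia-dependent neuron loss. Each compound was tested against DMSO vehicle wells on the same plates; BAY61-3606, a SYK inhibitor, was the reference neuroprotective control.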",
  "data": [
    {"test_system": "rat primary cerebellar neuron-glia coculture", "assay": "live neuron count (NeuO+) per image field (cells per field); higher = more surviving neurons", "settings": "LPS 0 ng/mL; 1 µM; treatment time 3 days", "protocol": "(§1)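 Primary rat (P3-7) cerebellar neuron-glia cocultures in 384-well plates were treated at DIV7 with 1 uM compound, then with or without 100 ng/mL LPS 30 min later, for 3 days. At DIV10 live cells were stained with Hoechst 33342, NeuO (live neurons), IB4-AF594 (microglia) and DRAQ7 (necrotic cells) and imaged at 10x (4 fields per well, IN Cell Analyzer 6000). Cells were classified with Cellpose/CellProfiler plus a Random Trees classifier. Values are per-well mean counts per image field (raw, not min-max normalised) and the median microglial FormFactor per image. Three technical replicates per repeat across 4 biological repeats; DMSO and BAY61-3606 serve as controls.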", "values": [
      {"smiles": "C[C@H](NC(=O)Cc1ccc(-c2ccc3cccnc3n2)cc1)c1ccc(-c2ccc(F)c(C(F)(F)F)c2)cc1", "live neuron count": "2660 ± 710"},
      {"smiles": "Cc1nc(-c2cnn(C)c2-c2ccc(C(F)(F)F)cn2)c2c(N3CCC3)ncnn12", "live neuron count": "2590 ± 430"},
      {"smiles": "COc1ccc(-c2nc(-c3cccs3)[nH]c2-c2ccc(OC)cc2)cc1", "live neuron count": "2650 ± 510"},
      {"smiles": "O=C(COc1ccc2ccccc2c1)N1CCN(C(=O)Cc2ccccc2)CC1", "live neuron count": "2650 ± 500"},
      {"smiles": "CN(C(=O)CCCOc1ccc2[nH]c(=O)ccc2c1)C1CCCCC1", "live neuron count": "2700 ± 560"},
      {"smiles": "NC[C@H](O)c1ccc(O)c(O)c1", "live neuron count": "2660 ± 450"},
      {"smiles": "C[C@]12CC[C@@H]3c4ccc(O)cc4C[C@@H](CCCCCCCCC[S+]([O-])CCCC(F)(F)C(F)(F)F)[C@H]3[C@@H]1CC[C@@H]2O", "note": "(stereo not given in full)", "live neuron count": "2570 ± 430"},
      {"smiles": "CC(C)(C)NC(=O)[C@H]1CC[C@H]2[C@@H]3CC[C@H]4NC(=O)C=C[C@]4(C)[C@H]3CC[C@]12C", "live neuron count": "2620 ± 470"},
      {"smiles": "CC(C)(C)c1ccc(S(=O)(=O)Nc2ccc(Cl)cc2C(=O)c2cc[n+]([O-])cc2)cc1", "live neuron count": "2560 ± 480"},
      {"smiles": "CC1(C)CC[C@]2(C(=O)O)CC[C@]3(C)[C@H](C(=O)C=C4[C@@]5(C)C=C(C#N)C(=O)C(C)(C)[C@@H]5CC[C@]43C)[C@@H]2C1", "live neuron count": "2710 ± 460"},
      {"smiles": "CCN(CC)CCOC(=O)C(c1ccccc1)c1ccccc1", "live neuron count": "2440 ± 550"},
      {"smiles": "CC[C@@H](C)Nc1cc(C(=O)NC2CC3CCC(C2)N3c2ccc(C(=O)C3CC3)cn2)c(C)cc1C(N)=O", "note": "(stereo not given in full)", "live neuron count": "2740 ± 680"},
      {"smiles": "Cc1ccc(NC(=O)/C=C/c2ccccc2)cc1", "live neuron count": "2570 ± 470"},
      {"smiles": "COc1cc2ncnc(Nc3cccc(Cl)c3F)c2cc1OC(=O)N1CCN(C)C[C@H]1C", "live neuron count": "2620 ± 550"},
      {"smiles": "O=C(c1ccc(-c2ccccc2)cc1)N1CCN(c2ccccn2)CC1", "live neuron count": "2540 ± 440"},
      {"smiles": "O=C1NCCCc2c1oc1ccc(O)cc21", "live neuron count": "3080 ± 380"},
      {"smiles": "Cc1ncc(Cl)cc1NCc1ccc(C(=O)N[C@@H](CC2CCCC2)C(=O)NC2CC2)s1", "live neuron count": "2560 ± 400"},
      {"smiles": "C[C@@H]1CN(C(=O)C[C@H](N)C(=O)N2Cc3ccccc3C2)CCN1C(c1ccc(F)cc1)c1ccc(F)cc1", "live neuron count": "1370 ± 490"},
      {"smiles": "c1ccc(C2=NCCN2)cc1", "live neuron count": "2550 ± 450"},
      {"smiles": "C[C@@H]1COCCN1c1cc(=O)n2c(n1)N(Cc1cncc(Cl)c1)[C@H](C(F)(F)F)CC2", "live neuron count": "2640 ± 470"}
    ]},
    {"test_system": "rat primary cerebellar neuron-glia coculture", "assay": "live neuron count (NeuO+) per image field (cells per field); higher = more surviving neurons", "settings": "LPS 100 ng/mL; 1 µM; treatment time 3 days", "protocol": "as §1", "values": [
      {"smiles": "C[C@H](NC(=O)Cc1ccc(-c2ccc3cccnc3n2)cc1)c1ccc(-c2ccc(F)c(C(F)(F)F)c2)cc1", "live neuron count": "469 ± 610"},
      {"smiles": "Cc1nc(-c2cnn(C)c2-c2ccc(C(F)(F)F)cn2)c2c(N3CCC3)ncnn12", "live neuron count": "231 ± 240"},
      {"smiles": "COc1ccc(-c2nc(-c3cccs3)[nH]c2-c2ccc(OC)cc2)cc1", "live neuron count": "581 ± 540"},
      {"smiles": "O=C(COc1ccc2ccccc2c1)N1CCN(C(=O)Cc2ccccc2)CC1", "live neuron count": "552 ± 690"},
      {"smiles": "CN(C(=O)CCCOc1ccc2[nH]c(=O)ccc2c1)C1CCCCC1", "live neuron count": "513 ± 870"},
      {"smiles": "NC[C@H](O)c1ccc(O)c(O)c1", "live neuron count": "2400 ± 480"},
      {"smiles": "C[C@]12CC[C@@H]3c4ccc(O)cc4C[C@@H](CCCCCCCCC[S+]([O-])CCCC(F)(F)C(F)(F)F)[C@H]3[C@@H]1CC[C@@H]2O", "note": "(stereo not given in full)", "live neuron count": "2600 ± 580"},
      {"smiles": "CC(C)(C)NC(=O)[C@H]1CC[C@H]2[C@@H]3CC[C@H]4NC(=O)C=C[C@]4(C)[C@H]3CC[C@]12C", "live neuron count": "305 ± 260"},
      {"smiles": "CC(C)(C)c1ccc(S(=O)(=O)Nc2ccc(Cl)cc2C(=O)c2cc[n+]([O-])cc2)cc1", "live neuron count": "403 ± 340"},
      {"smiles": "CC1(C)CC[C@]2(C(=O)O)CC[C@]3(C)[C@H](C(=O)C=C4[C@@]5(C)C=C(C#N)C(=O)C(C)(C)[C@@H]5CC[C@]43C)[C@@H]2C1", "live neuron count": "1850 ± 550"},
      {"smiles": "CCN(CC)CCOC(=O)C(c1ccccc1)c1ccccc1", "live neuron count": "228 ± 340"},
      {"smiles": "CC[C@@H](C)Nc1cc(C(=O)NC2CC3CCC(C2)N3c2ccc(C(=O)C3CC3)cn2)c(C)cc1C(N)=O", "note": "(stereo not given in full)", "live neuron count": "2360 ± 800"},
      {"smiles": "Cc1ccc(NC(=O)/C=C/c2ccccc2)cc1", "live neuron count": "323 ± 260"},
      {"smiles": "COc1cc2ncnc(Nc3cccc(Cl)c3F)c2cc1OC(=O)N1CCN(C)C[C@H]1C", "live neuron count": "306 ± 390"},
      {"smiles": "O=C(c1ccc(-c2ccccc2)cc1)N1CCN(c2ccccn2)CC1", "live neuron count": "572 ± 660"},
      {"smiles": "O=C1NCCCc2c1oc1ccc(O)cc21", "live neuron count": "485 ± 480"},
      {"smiles": "Cc1ncc(Cl)cc1NCc1ccc(C(=O)N[C@@H](CC2CCCC2)C(=O)NC2CC2)s1", "live neuron count": "349 ± 370"},
      {"smiles": "C[C@@H]1CN(C(=O)C[C@H](N)C(=O)N2Cc3ccccc3C2)CCN1C(c1ccc(F)cc1)c1ccc(F)cc1", "live neuron count": "161 ± 170"},
      {"smiles": "c1ccc(C2=NCCN2)cc1", "live neuron count": "458 ± 430"},
      {"smiles": "C[C@@H]1COCCN1c1cc(=O)n2c(n1)N(Cc1cncc(Cl)c1)[C@H](C(F)(F)F)CC2", "live neuron count": "49.5 ± 28"}
    ]}
  ]
}
